From PubChem BioAssay AID493014 (National Center for Advancing Translational Sciences (NCATS), 2011)
The other results are listed elsewhere or left out. These are further read-outs of the screen, such as a control signal, another cell line or another target. No call is given for them. The list favours compounds with an active or inconclusive main result. Words in brackets tell the shape of the fitted curve; partial curves, single points and poor fits give uncertain potencies.

Assay: qHTS Assay to Find Inhibitors of Chronic Active B-Cell Receptor Signaling
Details: ABC-DLBCL IkBa-CBG/CBR reporter, luminescence ratio (green luciferase fused to IkBa over red control in TMD8 lymphoma cells), 4 h
How it was run: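 Cell line TMD8 (human ABC DLBCL), stably expressing tet-inducible CBG68-IkBa fusion and CBR; IMDM/0.5% FBS; cpd up to 46 uM; dox induction, 4 h, 37C/5% CO2; dual luminescence; green/red ratio; MG132 control.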

[1] = measured here: CBR red luminescence, cell number
[2] = measured here: IkBa-CBG green luminescence

| Structure (SMILES) | AC50 [1] | AC50 [2] |
| --- | --- | --- |
| O=C(COC(=O)CCc1ccccc1)NCc1ccc2c(c1)OCO2 | 4.11 µM [rising, full curve, poor fit] | – |
| CCOc1ccc(NC(=O)CC2C(=O)NCCN2C(=O)Nc2ccccc2)cc1 (centres undefined) | 17.8 µM [rising, partial curve, poor fit] | – |
| CCOC(=O)c1cc2nc(Nc3ccc(OC)cc3)sc2s1 | 8.91 µM [rising, partial curve] | – |
| Cc1ccc(NC(=S)Nc2ncccc2C)c(C)c1 | 17.8 µM [rising, single point] | – |
| Nc1ccccc1-c1nnc(SCc2ccccc2Cl)[nH]c1=O | 13 µM [falling, partial curve] | – |
| [O-][n+]1c2c(nn1-c1ccccc1)/C(=N/O)CCC2 | 35.5 µM [rising, single point] | – |
| CC(C)Oc1ccccc1OCCN(C)C | 3.66 µM [rising, single point] | – |
| CCOC(=O)C1=C(c2ccccc2)OC(N)=C(C#N)C1c1cccnc1 (centres undefined) | 3.55 µM [falling, partial curve, poor fit] | – |
| N#C/C(Cn1c[n+](NC(=O)Nc2ccccc2)cn1)=N/O | 0.2 µM [rising, full curve] | – |
| CC1CCN(CC(=O)N2CCc3ccccc32)CC1 | 3.16 µM [rising, partial curve, poor fit] | – |
| Cc1cc(Br)cc(/C=N/NC(=O)c2ccc3c(c2)OCO3)c1O | 4.47 µM [falling, full curve, poor fit] | – |
| O=C(O)C1CC(c2ccccc2F)=NO1 (centres undefined) | 0.231 µM [rising, full curve, poor fit] | – |
| O=C(CSc1nnc(COc2cccc3cccnc23)o1)c1ccc(F)cc1 | 12.6 µM [falling, single point] | – |
| O=C(NC1=NCCS1)c1cc(-c2cccnc2)nc2ccccc12 | 2.82 µM [falling, partial curve, poor fit] | – |
| Oc1ccc(C[C@H]2CNCCN2CCCCC2CCCCC2)cc1 | 5.8 µM [falling, partial curve, poor fit] | – |
| CCOc1ccccc1N(CC(=O)Nc1ccc(OC)c(OC)c1)S(=O)(=O)c1ccccc1 | 35.5 µM [falling, partial curve, poor fit] | – |
| COC(=O)c1cccc(C23CC4(C2)[C@H](CN(Cc2cccnc2)[C@@H]4c2ccccc2)C3c2ccc(Cl)nc2)c1 (some centres undefined) | 3.16 µM [falling, partial curve, poor fit] | – |
| CCOC(=O)c1oc2ccccc2c1COC(=O)CNC(=O)c1ccccc1OC | 2.31 µM [rising, full curve, poor fit] | – |
| CN1CCN(C2Cc3ccccc3Sc3ccc(Cl)cc32)CC1 (centres undefined) | 9.2 µM [falling, partial curve] | – |
| C=C(C)COc1ccc(-c2nc(N)ncc2-c2ccccc2OC)c(O)c1 | 0.631 µM [rising, full curve, poor fit] | – |
| CCOc1ccc(C(=O)C(CN2CCOCC2)c2ccccc2)cc1 (centres undefined) | 29.1 µM [falling, single point] | – |

| Structure (SMILES) | AC50 [1] | AC50 [2] |
| --- | --- | --- |
| Cc1cc(C(=O)NC2CCCc3c2cnn3-c2ccc(C(C)(C)C)cc2)nn1C (centres undefined) | 35.5 µM [falling, single point] | – |
| Cc1nn(CCCNC(=O)C2CCCO2)cc1Br (centres undefined) | 0.517 µM [falling, full curve, poor fit] | – |
| CC1(C)CC(=O)C2=C(C1)N(CC1CCCO1)C(=O)C2(O)C(F)(F)F (centres undefined) | 29.1 µM [rising, single point] | – |
| Cc1ccc(S(=O)(=O)N2CCCC2)cc1C(=O)NCc1ccccn1 | 11.2 µM [falling, partial curve, poor fit] | – |
| COc1cccc(C2SCC(=O)N2c2cccc(C)c2)c1OC (centres undefined) | 4.11 µM [rising, full curve, poor fit] | – |
| CCN(CC)CC(O)CN1c2ccccc2Sc2ccccc21 (centres undefined) | 15.8 µM [falling, single point] | – |
| O=C(Nc1ccc(Cl)c(Cl)c1)c1csc(-c2ccccc2)n1 | 2.59 µM [rising, partial curve, poor fit] | – |
| CCN1CCN(S(=O)(=O)c2ccc(Cl)c(C(=O)N(C)Cc3ccccc3)c2)CC1 | 29.1 µM [rising, single point] | – |
| COc1ccc(C)cc1Nc1nc(N)c2cc(OC)c(OC)cc2n1 | 2.82 µM [falling, partial curve] | – |
| CC(C(=O)Nc1ccccc1F)N1CCN(C)CC1 (centres undefined) | 12.6 µM [rising, partial curve, poor fit] | – |
| COCc1cc(C)nc(SCc2ccccc2)c1C#N | 35.5 µM [rising, single point] | – |
| CCOc1cc(C(=O)Nc2cc(F)ccc2C)ccc1OCC(=O)N1CCOCC1 | 0.731 µM [rising, full curve, poor fit] | – |
| CCCCn1c(=NC(=O)c2ccco2)c(C(=O)OCC)cc2c(=O)n3cccc(C)c3nc21 | – | 14.1 µM [rising, single point] |
| CCc1cccc(NC(=O)C2CCN(S(=O)(=O)c3cccc(-c4noc(C)n4)c3)CC2)c1 | 0.158 µM [falling, full curve, poor fit] | – |
| O=C(CSc1nnc(-c2ccco2)n1Cc1ccccc1)NC(=O)NCc1ccccc1 | 20 µM [falling, single point] | – |
| C=CC[C@@H](Cc1ccc(F)cc1)C(=O)OC[C@@H]1CCCN1C(=O)[C@@H](CC=C)CC(=O)N[C@@H](CO)Cc1ccccc1 | 18.4 µM [falling, partial curve] | – |
| CC1(C)Cc2c(cnn2-c2cccc(F)c2)C(NC(=O)CSc2ccncc2)C1 (centres undefined) | 6.31 µM [falling, single point] | – |
| CC(C)(C)NC(=O)CSc1nncn1NCc1cccc2ccccc12 | 18.4 µM [falling, single point] | – |
| CCOC(=O)N1CCN(C(=O)COc2cccc3c2CCN(CC)C3=O)CC1 | 12.6 µM [falling, partial curve, poor fit] | – |
| CCOC(=O)[C@H]1[C@H]2COc3ccc(OC)cc3[C@@H]2N2C(=O)CN(Cc3ccccc3)C(=O)[C@@]12C | 8.2 µM [falling, partial curve] | – |
| CC(C)CC(=O)Nc1ccc(C(=O)Cn2nc(C(=O)O)c3ccccc3c2=O)cc1 | 29.1 µM [rising, single point] | – |

| Structure (SMILES) | AC50 [1] | AC50 [2] |
| --- | --- | --- |
| COc1cccc(NC(=O)Cc2cccs2)c1 | 0.794 µM [rising, full curve, poor fit] | – |
| O=C(COC(=O)c1ccc(Cl)c(S(=O)(=O)N2CCCCCC2)c1)Nc1ccccc1 | 29.1 µM [falling, single point] | – |
| N/C(=N\OC(=O)c1ccco1)c1cccc([N+](=O)[O-])c1 | 2.51 µM [rising, full curve, poor fit] | – |
| C/C(=C\c1ccccc1)C(=O)c1c(C)cc(C)[nH]c1=O | 35.5 µM [falling, single point] | – |
| CC(=O)NCC(=O)OCC(=O)c1ccccc1 | 29.1 µM [rising, single point] | – |
| CCOC(=O)c1c(C)[nH]c(C)c1C(=O)CSc1nnnn1-c1ccccc1 | 16.4 µM [rising, single point] | 32.6 µM [falling, partial curve, poor fit] |
| Cc1ccsc1-c1nc(CSCC(=O)N2CCN(c3ccccc3)CC2)c(C)o1 | 0.461 µM [falling, full curve] | – |
| CC(C)(C)[C@@H]1C=C(C(=O)NC2CC2)O[C@H](OCc2ccc(CO)cc2)C1 | 6.31 µM [rising, single point] | – |
| O=C(NCCCn1ccnc1)c1ccc2c(c1)OCCO2 | 7.94 µM [falling, partial curve, poor fit] | – |
| COCCN(C(=O)COC(=O)C1CCC(C(C)(C)C)CC1)c1c(N)n(Cc2ccccc2)c(=O)[nH]c1=O (centres undefined) | 32.6 µM [falling, partial curve, poor fit] | – |
| CCOC(=O)c1ccc(N2CSC3=C(C#N)C(c4ccc(OC)cc4OC)CC(=O)N3C2)cc1 (centres undefined) | 6.51 µM [rising, single point] | – |
| Cn1c(NNC(=O)/C=C/c2ccc3c(c2)OCO3)cc(=O)n(C)c1=O | 0.891 µM [falling, full curve, poor fit] | – |
| CC(C)(C)NC(=O)c1ccc2c(c1)C(=O)N(C1CCCCC1)C2=O | 13 µM [rising, partial curve] | – |
| O=C(OCc1nnc(-c2ccccc2)o1)c1ccc2c(c1)C(=O)N(CCc1ccccc1)C2=O | 32.6 µM [falling, single point] | – |
| COC(=O)CC1NCCc2cc(OC)c(OC)cc21 (centres undefined) | 6.31 µM [falling, partial curve, poor fit] | – |
| O=C(Nc1ccc(Cl)cc1)OCc1cc(-c2ccccc2)on1 | 0.794 µM [rising, partial curve, poor fit] | – |
| O=C1CC(c2ccc(F)cc2)CC2=C1C(c1ccc([N+](=O)[O-])o1)Nc1ccccc1N2 (centres undefined) | 10 µM [falling, partial curve, poor fit] | – |
| COc1cc(/C=C/C(=O)c2ccc(O)cc2)ccc1OCC#N | 20.6 µM [falling, partial curve, poor fit] | – |
| Cc1cc(C(=O)COC(=O)CNC(=O)c2ccco2)c(C)n1Cc1ccco1 | 18.4 µM [rising, single point] | – |
| O=C(N/N=C/c1cccnc1)c1ccc(NC(=O)c2ccccc2Cl)cc1 | – | 20 µM [rising, partial curve, poor fit] |
| c1cncc(CNc2nc(-c3cccnc3)nc3ccccc23)c1 | 5.62 µM [rising, single point] | – |

Exported as comma-separated lines: entries from further up.
Structure (SMILES),AC50 [1],AC50 [2]
N/C(=N\OC(=O)c1ccco1)c1cccc([N+](=O)[O-])c1,"2.51 µM [rising, full curve, poor fit]",–
C/C(=C\c1ccccc1)C(=O)c1c(C)cc(C)[nH]c1=O,"35.5 µM [falling, single point]",–
CC(=O)NCC(=O)OCC(=O)c1ccccc1,"29.1 µM [rising, single point]",–
CCOC(=O)c1c(C)[nH]c(C)c1C(=O)CSc1nnnn1-c1ccccc1,"16.4 µM [rising, single point]","32.6 µM [falling, partial curve, poor fit]"
Cc1ccsc1-c1nc(CSCC(=O)N2CCN(c3ccccc3)CC2)c(C)o1,"0.461 µM [falling, full curve]",–
CC(C)(C)[C@@H]1C=C(C(=O)NC2CC2)O[C@H](OCc2ccc(CO)cc2)C1,"6.31 µM [rising, single point]",–
O=C(NCCCn1ccnc1)c1ccc2c(c1)OCCO2,"7.94 µM [falling, partial curve, poor fit]",–
COCCN(C(=O)COC(=O)C1CCC(C(C)(C)C)CC1)c1c(N)n(Cc2ccccc2)c(=O)[nH]c1=O (centres undefined),"32.6 µM [falling, partial curve, poor fit]",–
CCOC(=O)c1ccc(N2CSC3=C(C#N)C(c4ccc(OC)cc4OC)CC(=O)N3C2)cc1 (centres undefined),"6.51 µM [rising, single point]",–
Cn1c(NNC(=O)/C=C/c2ccc3c(c2)OCO3)cc(=O)n(C)c1=O,"0.891 µM [falling, full curve, poor fit]",–
CC(C)(C)NC(=O)c1ccc2c(c1)C(=O)N(C1CCCCC1)C2=O,"13 µM [rising, partial curve]",–
O=C(OCc1nnc(-c2ccccc2)o1)c1ccc2c(c1)C(=O)N(CCc1ccccc1)C2=O,"32.6 µM [falling, single point]",–
COC(=O)CC1NCCc2cc(OC)c(OC)cc21 (centres undefined),"6.31 µM [falling, partial curve, poor fit]",–
O=C(Nc1ccc(Cl)cc1)OCc1cc(-c2ccccc2)on1,"0.794 µM [rising, partial curve, poor fit]",–
